Experimental data: PMC10458388
No constants are given. Whether binding was seen depends on the method and setting. A result given as binding can be weak or reduced; the word gives no strength.

Molecular target: C-terminus of human Hsp90α (residues 566-732) (human) (UniProt P07900)
Experiment: SEC-MALS; SEC-MALS-QELS of the mixtures, molecular mass of the complex (Table S1); SbRPAP3 15 µmol/L with SsHsp70 15 µmol/L; SbRPAP3 with C-Hsp90; both purified

For “Sorghum bicolor RPAP3 (RNA polymerase II-associated protein 3), isoform 2 (from UniProt C5YZG3)”, the binding was “binds”.
